# Laboratory results reported in PMC4686900.
# Chains of the proteins cited; added tags and fusions are not shown.
# UniProt P60484: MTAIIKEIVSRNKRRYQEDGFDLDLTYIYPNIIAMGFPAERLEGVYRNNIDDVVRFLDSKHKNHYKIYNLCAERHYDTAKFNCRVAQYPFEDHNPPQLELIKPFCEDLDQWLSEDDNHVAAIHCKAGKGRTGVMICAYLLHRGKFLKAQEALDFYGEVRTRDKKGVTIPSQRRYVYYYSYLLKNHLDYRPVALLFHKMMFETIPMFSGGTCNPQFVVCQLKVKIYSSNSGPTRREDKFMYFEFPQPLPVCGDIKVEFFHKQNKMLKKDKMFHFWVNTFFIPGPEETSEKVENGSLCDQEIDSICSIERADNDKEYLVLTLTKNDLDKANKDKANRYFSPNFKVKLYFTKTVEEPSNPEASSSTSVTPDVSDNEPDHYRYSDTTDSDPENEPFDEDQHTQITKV
# UniProt O08586: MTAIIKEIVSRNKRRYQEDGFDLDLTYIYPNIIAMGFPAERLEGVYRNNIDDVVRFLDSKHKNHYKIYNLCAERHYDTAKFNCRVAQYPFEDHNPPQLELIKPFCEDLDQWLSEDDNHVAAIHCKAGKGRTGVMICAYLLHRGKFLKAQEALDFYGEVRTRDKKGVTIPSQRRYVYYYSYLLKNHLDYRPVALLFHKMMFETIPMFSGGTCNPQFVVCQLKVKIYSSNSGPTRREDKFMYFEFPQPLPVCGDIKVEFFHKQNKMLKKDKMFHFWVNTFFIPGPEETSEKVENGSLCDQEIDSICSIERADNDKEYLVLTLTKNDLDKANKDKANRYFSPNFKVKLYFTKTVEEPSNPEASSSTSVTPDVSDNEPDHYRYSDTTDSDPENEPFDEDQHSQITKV
# No constants are given. Whether binding was seen depends on the method and setting. Binding seen in cells or lysates may run through a third protein. Some binding calls cover weakened binding; strength is not graded here.
# Experiments:
# [1] = target: phosphatase and tensin homology containing (PTEN) lipid phosphatase, expression construct with C-terminal FLAG tag (UniProt P60484); test: co-IP; 293T cells co-transfected with FLAG-tagged PTEN and full-length or cytoplasmic truncated ECSCR; anti-FLAG immune precipitation; lysis in 10 mM HEPES, 0.1% Triton X100 with protease and phosphatase inhibitors; cells unstimulated, stimulated with insulin (association increased) or isoproterenol (reduced), or given the PKA inhibitor cAMPS-Rp (100 μM, no block)
# [2] = target: phosphatase and tensin homology containing (PTEN) lipid phosphatase, expression construct with C-terminal FLAG tag (UniProt P60484); test: condition: only with the PI3K inhibitor LY294002 (10 μM), after insulin stimulation; co-IP; 293T cells co-transfected with FLAG-tagged PTEN and ECSCR; insulin stimulation in the presence of the PI3K inhibitor LY294002 (10 μM)
# [3] = target: endogenous PTEN of 3T3-L1 cells (mouse (endogenous in 3T3-L1)) (UniProt O08586); test: co-IP; endogenous proteins; 3T3-L1 cells differentiated for 8 days, lysed and prepared for immune precipitation; with and without insulin stimulation (interaction increased by insulin)
Binder,binding [1],binding [2],binding [3]
"Endothelial Cell Surface expressed Chemotaxis and apoptosis Regulator (ECSCR), full-length, human cDNA construct (protein, UniProt Q19T08 25-205) QPTMTQTSSSQGGLGGLSLTTEPVSSNPGYIPSSEANRPSHLSSTGTPGAGVPSSGRDGGTSRDTFQTVPPNSTTMSLSMREDATILPSPTSETVLTVAAFGVISFIVILVVVVIILVGVVSLRFKCRKSKESEDPQKPGSSGLSESCSTANGEKDSITLISMKNINMNNGKQSLSAEKVL",binds,no binding,
"endogenous ECSCR of 3T3-L1 cells (protein, UniProt Q3TZW0 19-214) QPTTTQTSQEILQKSSQVSLVSNQPVTPRSSTMDKQSLSLPDLMSFQPQKHTLGPGTGTPERSSSSSSSSSSRRGEASLDATPSPETTSLQTKKMTILLTILPTPTSESVLTVAAFGVISFIVILVVVVIILVSVVSLRFKCRKNKESEDPQKPGSSGLSESCSTANGEKDSITLISMRNINVNNSKGSMSAEKIL",,,binds
